Results are given in words; binding and its absence hold for the method and conditions named. In cells and extracts the contact can be indirect. Some binding calls cover weakened binding; strength is not graded here. Sequences can lack the tags named with a protein.

Protein sequences, listed by entry. Tags and fused reporters are not part of them. Residues count along the entry.
UniProt P10852: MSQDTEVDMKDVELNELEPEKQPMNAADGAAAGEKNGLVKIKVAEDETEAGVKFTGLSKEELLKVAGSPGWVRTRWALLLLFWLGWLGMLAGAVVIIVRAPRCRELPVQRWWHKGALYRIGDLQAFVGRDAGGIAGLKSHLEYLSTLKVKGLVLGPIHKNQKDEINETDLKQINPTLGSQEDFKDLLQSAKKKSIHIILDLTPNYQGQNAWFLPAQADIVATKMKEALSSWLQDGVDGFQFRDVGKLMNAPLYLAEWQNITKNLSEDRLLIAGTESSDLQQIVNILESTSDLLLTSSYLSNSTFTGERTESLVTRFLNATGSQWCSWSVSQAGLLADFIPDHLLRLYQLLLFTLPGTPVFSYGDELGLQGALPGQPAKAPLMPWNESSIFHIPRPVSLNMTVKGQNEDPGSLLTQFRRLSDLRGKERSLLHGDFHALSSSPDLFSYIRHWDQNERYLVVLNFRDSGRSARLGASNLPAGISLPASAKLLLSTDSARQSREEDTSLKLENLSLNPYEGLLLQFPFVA
UniProt P29317, residues 24-976: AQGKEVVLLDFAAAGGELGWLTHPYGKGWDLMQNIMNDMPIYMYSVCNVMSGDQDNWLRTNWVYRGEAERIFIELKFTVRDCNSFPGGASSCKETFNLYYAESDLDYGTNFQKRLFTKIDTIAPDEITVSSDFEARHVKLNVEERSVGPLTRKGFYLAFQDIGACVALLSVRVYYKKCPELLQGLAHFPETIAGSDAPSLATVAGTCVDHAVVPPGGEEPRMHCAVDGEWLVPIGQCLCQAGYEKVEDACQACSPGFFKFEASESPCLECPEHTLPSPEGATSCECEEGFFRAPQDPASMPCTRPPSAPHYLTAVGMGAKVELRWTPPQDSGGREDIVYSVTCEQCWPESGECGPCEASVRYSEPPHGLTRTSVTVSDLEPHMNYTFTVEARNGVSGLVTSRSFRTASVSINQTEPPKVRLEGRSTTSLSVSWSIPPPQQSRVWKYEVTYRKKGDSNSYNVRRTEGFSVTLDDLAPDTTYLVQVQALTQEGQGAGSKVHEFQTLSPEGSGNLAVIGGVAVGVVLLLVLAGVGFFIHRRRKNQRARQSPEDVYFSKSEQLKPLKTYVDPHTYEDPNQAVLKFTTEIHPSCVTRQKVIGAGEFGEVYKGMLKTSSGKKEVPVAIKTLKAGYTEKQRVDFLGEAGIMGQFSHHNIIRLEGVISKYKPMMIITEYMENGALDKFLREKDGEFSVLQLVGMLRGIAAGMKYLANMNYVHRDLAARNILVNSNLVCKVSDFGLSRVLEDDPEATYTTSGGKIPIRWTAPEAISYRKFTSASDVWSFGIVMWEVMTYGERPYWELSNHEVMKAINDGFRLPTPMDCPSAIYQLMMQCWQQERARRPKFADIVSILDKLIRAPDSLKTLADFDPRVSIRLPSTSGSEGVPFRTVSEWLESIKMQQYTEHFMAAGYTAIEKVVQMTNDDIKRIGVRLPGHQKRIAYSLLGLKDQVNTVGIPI

From publication PMC11993990 come the findings set out here.

Experiment [1] has as its target T1, human wild-type R-RAS2 tagged at the N-terminus with a hemagglutinin (Hag) epitope, from the Rosa26-RRAS2fl/fl knock-in (human) (UniProt P62070).
T1 sequence: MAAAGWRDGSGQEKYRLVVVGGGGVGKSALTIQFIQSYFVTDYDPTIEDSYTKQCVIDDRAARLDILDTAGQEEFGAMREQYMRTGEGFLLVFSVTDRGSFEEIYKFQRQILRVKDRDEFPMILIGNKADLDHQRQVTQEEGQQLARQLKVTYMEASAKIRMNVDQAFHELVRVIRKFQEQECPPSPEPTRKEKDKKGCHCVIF
In words: co-IP; CBM-MBC21 mouse cells, 0.5% Brij96 lysate; anti-Hag (12CA5) or IgG2b isotype control on Protein G Sepharose, overnight at 4 °C; blots for Epha2, CD44, CD98 and Hag.

The target in experiment [2] is T2, Hag epitope-tagged R-RAS2 transiently transfected in BT-549 cells (UniProt P62070).
T2 sequence: T1 sequence
The experiment can be described thus: co-IP; human BT-549 cells transfected with Hag-tagged R-RAS2, 0.5% Brij96 lysate; anti-Hag (12CA5) or IgG2b isotype control on Protein G Sepharose, overnight at 4 °C; blots for Epha2, CD44, CD98 and Hag.

For “CD98 heavy chain (Slc3a2), mouse (from UniProt P10852 1-526)”, the binding result in experiment [1] is “binds”. Consider “Epha2 receptor tyrosine kinase, human, in BT-549 cells (from UniProt P29317 24-976)”, for which the binding entry in experiment [2] is “binds”. Consider “CD98 heavy chain (SLC3A2), human, in BT-549 cells (from UniProt P08195 1-529)”, for which the binding result in experiment [2] is recorded as “binds”.
